According to the supplement of paper PMC10849652:
Some of the results follow. Residues, ends and D or L forms follow the SMILES beside them. *: point of attachment. Cbz = O=C(OCc1ccccc1)*

Chains of the proteins cited; added tags and fusions are not shown. Lines headed by an entry give the natural chain unless they say otherwise; changes in a name come on top.
UniProt O95373, whole entry, looked up: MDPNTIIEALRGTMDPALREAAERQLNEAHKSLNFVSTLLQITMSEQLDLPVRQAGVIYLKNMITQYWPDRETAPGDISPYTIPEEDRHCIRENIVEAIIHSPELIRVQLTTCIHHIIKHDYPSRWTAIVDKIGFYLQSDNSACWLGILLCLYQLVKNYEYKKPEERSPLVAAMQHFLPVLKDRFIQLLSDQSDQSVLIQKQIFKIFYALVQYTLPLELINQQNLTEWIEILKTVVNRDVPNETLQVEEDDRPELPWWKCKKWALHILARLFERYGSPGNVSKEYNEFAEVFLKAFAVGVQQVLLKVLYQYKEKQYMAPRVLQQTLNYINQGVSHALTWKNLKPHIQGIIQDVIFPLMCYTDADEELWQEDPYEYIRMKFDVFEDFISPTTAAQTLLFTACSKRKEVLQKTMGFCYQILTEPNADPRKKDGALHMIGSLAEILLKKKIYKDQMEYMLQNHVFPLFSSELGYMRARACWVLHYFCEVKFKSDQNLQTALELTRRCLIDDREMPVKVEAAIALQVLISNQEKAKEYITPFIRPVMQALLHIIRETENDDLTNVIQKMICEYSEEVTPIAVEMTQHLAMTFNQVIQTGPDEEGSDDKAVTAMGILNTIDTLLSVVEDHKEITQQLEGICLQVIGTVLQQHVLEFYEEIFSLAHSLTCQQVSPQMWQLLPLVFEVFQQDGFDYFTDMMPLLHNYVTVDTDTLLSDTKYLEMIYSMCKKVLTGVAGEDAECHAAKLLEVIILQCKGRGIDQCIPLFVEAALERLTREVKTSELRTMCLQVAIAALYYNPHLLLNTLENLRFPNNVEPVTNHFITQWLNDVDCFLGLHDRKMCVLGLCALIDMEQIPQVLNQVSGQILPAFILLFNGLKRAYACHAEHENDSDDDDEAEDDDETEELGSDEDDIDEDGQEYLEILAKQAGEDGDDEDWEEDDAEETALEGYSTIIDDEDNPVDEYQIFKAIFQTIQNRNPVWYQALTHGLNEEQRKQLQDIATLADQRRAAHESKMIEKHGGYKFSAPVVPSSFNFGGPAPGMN
UniProt Q9UNL4, whole entry, looked up: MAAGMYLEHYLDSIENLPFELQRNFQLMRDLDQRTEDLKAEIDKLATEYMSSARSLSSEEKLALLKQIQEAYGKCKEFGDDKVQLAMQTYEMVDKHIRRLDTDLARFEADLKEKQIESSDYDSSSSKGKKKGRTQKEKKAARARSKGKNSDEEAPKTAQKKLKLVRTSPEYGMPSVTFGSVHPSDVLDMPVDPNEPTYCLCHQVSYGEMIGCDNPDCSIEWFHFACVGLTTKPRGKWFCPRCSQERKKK
UniProt Q9H2S9: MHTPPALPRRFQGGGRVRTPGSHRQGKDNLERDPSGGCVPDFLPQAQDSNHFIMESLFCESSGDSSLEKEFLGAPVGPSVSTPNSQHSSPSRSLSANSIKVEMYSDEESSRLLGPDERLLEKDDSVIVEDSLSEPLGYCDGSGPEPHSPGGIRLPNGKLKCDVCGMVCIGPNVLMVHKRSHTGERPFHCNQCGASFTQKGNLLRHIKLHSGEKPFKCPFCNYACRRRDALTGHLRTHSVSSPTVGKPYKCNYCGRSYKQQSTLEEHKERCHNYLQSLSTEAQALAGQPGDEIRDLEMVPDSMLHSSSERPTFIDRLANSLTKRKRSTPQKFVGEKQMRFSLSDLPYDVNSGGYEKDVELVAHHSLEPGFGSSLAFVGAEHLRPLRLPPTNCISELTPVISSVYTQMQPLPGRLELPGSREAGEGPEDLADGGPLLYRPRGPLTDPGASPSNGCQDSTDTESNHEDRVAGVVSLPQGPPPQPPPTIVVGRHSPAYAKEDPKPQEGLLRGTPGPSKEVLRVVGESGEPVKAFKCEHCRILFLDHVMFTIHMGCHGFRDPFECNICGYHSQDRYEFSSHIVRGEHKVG
UniProt P51617, whole entry, looked up: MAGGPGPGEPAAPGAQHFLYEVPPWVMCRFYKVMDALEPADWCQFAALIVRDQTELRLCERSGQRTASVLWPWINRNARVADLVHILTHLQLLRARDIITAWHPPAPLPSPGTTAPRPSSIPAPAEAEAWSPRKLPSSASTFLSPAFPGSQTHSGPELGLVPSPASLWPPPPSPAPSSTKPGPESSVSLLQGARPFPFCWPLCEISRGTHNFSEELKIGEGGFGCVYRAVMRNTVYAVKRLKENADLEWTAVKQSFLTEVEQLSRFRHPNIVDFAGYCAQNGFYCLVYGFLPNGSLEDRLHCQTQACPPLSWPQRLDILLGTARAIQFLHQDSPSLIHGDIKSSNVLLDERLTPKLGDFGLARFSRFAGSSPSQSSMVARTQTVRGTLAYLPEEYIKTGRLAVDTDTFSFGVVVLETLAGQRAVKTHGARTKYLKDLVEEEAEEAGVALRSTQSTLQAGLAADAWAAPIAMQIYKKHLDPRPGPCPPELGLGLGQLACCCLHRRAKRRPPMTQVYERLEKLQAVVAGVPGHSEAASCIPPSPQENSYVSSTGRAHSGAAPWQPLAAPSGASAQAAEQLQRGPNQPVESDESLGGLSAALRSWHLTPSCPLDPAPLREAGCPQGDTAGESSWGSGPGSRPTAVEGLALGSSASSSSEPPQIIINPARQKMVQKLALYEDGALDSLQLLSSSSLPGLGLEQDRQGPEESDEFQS
UniProt Q13422: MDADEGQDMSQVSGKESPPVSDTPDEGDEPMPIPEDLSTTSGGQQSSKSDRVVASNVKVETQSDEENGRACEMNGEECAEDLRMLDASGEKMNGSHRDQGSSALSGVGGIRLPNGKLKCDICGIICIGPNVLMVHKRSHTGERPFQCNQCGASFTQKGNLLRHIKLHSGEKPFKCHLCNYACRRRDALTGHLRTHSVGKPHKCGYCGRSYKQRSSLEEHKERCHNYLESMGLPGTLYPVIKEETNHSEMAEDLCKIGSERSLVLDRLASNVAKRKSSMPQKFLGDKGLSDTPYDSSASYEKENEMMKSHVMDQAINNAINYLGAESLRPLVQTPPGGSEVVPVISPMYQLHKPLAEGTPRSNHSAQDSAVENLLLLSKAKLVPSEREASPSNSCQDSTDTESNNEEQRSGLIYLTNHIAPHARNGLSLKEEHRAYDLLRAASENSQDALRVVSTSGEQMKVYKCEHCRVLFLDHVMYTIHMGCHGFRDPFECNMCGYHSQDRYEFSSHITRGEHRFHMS
UniProt Q9H0H0, whole entry, looked up: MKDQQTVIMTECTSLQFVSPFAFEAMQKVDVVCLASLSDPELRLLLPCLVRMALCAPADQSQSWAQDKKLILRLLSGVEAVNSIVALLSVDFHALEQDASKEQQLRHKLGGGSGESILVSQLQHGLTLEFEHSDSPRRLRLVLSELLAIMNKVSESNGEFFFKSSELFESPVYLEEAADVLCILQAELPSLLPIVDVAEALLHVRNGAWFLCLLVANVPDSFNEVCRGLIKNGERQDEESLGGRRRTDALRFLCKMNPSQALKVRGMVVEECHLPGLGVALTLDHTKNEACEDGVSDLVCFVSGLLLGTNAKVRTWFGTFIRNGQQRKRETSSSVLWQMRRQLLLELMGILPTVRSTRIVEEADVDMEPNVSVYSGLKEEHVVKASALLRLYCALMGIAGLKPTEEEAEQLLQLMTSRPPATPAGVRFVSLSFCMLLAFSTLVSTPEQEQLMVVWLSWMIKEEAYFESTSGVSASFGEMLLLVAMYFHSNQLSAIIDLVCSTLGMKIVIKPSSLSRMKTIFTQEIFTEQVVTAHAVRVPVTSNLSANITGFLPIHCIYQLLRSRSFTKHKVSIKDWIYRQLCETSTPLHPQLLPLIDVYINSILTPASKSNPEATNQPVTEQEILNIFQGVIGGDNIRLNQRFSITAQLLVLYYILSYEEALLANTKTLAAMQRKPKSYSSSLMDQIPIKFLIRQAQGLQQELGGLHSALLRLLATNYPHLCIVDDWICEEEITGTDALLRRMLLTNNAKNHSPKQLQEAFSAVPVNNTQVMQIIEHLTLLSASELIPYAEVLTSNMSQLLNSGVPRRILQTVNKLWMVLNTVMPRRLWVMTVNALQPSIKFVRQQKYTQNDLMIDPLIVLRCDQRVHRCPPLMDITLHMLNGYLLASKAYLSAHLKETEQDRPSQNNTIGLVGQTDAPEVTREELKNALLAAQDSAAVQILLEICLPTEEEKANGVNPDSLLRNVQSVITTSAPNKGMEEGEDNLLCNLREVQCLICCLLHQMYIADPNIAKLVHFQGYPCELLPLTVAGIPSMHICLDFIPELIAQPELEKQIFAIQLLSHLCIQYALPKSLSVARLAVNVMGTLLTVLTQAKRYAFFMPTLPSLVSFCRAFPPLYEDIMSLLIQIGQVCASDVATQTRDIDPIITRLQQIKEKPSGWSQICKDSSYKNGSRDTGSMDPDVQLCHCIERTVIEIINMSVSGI
UniProt Q8N201, whole entry, looked up: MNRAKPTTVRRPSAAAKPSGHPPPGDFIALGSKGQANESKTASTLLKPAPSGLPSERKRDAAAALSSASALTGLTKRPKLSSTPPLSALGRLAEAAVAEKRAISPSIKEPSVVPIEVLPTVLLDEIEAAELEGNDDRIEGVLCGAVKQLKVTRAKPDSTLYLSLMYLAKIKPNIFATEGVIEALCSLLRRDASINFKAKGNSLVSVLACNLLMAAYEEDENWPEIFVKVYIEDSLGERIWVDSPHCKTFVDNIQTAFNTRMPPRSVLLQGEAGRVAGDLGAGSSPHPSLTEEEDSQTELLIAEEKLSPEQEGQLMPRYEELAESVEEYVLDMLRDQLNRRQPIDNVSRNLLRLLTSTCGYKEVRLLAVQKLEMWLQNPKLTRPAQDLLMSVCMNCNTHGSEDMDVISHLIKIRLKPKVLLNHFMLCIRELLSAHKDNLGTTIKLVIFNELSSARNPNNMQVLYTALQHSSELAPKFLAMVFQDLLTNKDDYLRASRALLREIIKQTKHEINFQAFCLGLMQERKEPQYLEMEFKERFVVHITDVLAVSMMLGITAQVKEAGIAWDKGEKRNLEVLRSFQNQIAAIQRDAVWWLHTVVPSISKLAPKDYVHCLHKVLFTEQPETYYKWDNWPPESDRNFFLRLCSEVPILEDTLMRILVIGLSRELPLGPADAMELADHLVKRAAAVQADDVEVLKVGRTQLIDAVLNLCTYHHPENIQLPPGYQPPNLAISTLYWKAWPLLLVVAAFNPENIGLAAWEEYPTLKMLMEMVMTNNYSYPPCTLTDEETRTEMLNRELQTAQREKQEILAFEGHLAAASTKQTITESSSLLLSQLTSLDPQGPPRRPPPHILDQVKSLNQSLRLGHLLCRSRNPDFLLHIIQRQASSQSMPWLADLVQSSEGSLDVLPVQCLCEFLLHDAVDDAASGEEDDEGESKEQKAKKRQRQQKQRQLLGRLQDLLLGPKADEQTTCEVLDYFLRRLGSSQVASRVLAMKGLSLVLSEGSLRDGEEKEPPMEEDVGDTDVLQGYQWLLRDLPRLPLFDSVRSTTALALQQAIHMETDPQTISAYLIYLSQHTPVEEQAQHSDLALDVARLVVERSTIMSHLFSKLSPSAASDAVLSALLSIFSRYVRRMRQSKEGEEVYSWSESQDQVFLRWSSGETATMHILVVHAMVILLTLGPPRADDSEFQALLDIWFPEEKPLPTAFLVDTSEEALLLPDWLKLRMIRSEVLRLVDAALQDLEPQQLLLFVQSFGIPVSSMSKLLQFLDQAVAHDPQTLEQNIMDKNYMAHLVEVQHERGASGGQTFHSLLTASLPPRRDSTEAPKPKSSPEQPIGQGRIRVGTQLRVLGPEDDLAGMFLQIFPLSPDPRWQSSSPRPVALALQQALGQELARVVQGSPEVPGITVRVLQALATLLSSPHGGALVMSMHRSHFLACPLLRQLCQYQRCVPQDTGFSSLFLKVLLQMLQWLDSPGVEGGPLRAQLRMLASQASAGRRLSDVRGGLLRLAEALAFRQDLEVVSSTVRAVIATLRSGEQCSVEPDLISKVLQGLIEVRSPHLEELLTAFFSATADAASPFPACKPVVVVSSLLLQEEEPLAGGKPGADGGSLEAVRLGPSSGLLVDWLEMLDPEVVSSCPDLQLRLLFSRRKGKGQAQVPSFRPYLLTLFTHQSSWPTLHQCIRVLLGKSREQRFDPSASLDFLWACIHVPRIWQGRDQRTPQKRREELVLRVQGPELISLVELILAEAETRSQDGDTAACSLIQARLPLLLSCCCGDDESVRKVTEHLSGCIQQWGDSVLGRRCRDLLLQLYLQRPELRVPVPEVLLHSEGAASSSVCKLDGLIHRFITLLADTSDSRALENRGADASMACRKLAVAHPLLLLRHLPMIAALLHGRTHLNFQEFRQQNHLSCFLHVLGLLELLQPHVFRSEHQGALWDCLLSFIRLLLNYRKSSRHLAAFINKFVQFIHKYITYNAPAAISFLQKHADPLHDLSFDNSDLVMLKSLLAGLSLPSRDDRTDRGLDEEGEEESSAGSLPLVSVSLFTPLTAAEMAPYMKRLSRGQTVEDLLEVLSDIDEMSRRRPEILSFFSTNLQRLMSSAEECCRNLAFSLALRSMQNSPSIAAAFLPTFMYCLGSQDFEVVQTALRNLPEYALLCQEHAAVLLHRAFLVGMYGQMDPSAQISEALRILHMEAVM

Columns and labels:
Assay in all cases: log2 fold change, soluble protein after heating vs DMSO (PISA); higher = thermal stabilisation; K562 cells, 10 uM, 30 min; active = over 0.2 and 3.5 SD of the protein, either way, in both replicates (recomputed)
[1] = compound: C#Cc1cccc(Nc2ncnc3cc(OCCOC)c(OCCOC)cc23)c1 [erlotinib]
Method in brief: (§1)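 Soluble protein was defined as the supernatant after 21,000xg for 90 min. It came from K562 cells at 2×10^6 cells/mL given 10 μM compound for 30 min, heated in aliquots for 3 min across 48°C-58°C, pooled, and extracted in PBS with 0.5% NP-40 at 4°C, and was quantified by TMTpro 16plex LC-MS/MS with equalised channel sums. Thermal stability against control samples, from duplicates, is reported as log2 fold change.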

[2] = compound: C/C(=N\NC(=O)C1=CC(=CC=C1)S(=O)(=O)N2CCOCC2)/C3=C(C=CC(=C3)Cl)O
Method in brief: as §1

[3] = compound: C1=CC(=C(C=C1Cl)C2=NC3=NC=CN=C3C(=N2)NC4=CC=NC=C4)F
Method in brief: as §1

[4] = compound: C1=CC(=CC=C1C2=NC3=C(N2)C=C(C=C3)C(=O)N)OC4=CC=C(C=C4)Cl
Method in brief: as §1

[5] = compound: C1=CC2=C(C=CC(=C2)/C=C\3/C(=O)NC(=NCC4=CC=CS4)S3)N=C1
Method in brief: as §1

[6] = compound: C1=CC2=NC=CN=C2C=C1/C=C/3\C(=O)NC(=O)S3
Method in brief: as §1

[7] = compound: C1=CC=C(C=C1)C2=NC(=C(N2)C3=CC=NC=C3)C4=CC(=C(C=C4)Cl)O
Method in brief: as §1

[8] = compound: C1=CC=C2C(=C1)C3=NNC4=CC=CC(=C43)C2=O
Method in brief: as §1

[9] = compound: C1CCN(C1)C(=O)NC2=CC=CC(=C2)NC3=NC=C(C(=N3)NCCC4=CN=CN4)Br
Method in brief: as §1

[10] = compound: C1CN(CCC1(CC2=CC=C(C=C2)Cl)N)C3=NC=NC4=C3C=CN4
Method in brief: as §1

[11] = compound: C1COCCN1CCN2C3=CC=CC=C3N=C2NC(=O)C4=CC(=CC=C4)[N+](=O)[O-] [IRAK-1-4 Inhibitor I]
Method in brief: as §1

[12] = compound: C=CC(=O)N1CCC[C@@H](n2nc(-c3ccc(Oc4ccccc4)cc3)c3c(N)ncnc32)C1 [ibrutinib]
Method in brief: as §1

[13] = compound: CC(=O)c1cnc2ccc(-c3cc(Cl)c(O)c(Cl)c3)nc2c1N[C@H]1CC[C@H](CN(C)C)CC1
Method in brief: as §1

[14] = compound: CC(C)(C)Cn1c(N)nc2ccc(-c3[nH]c(C(C)(C)C)nc3-c3ccc(F)cc3)nc21 [ralimetinib]
Method in brief: as §1

[15] = compound: CC(C)(O)CC(=O)NCCn1ccc2ncnc(Nc3ccc(Oc4cccc(C(F)(F)F)c4)c(Cl)c3)c21
Method in brief: as §1

[16] = compound: CC(C)C1=C2N=C(C=C(N2N=C1)NCC3=CC=CC=C3)NCCCCCCN
Method in brief: as §1

[17] = compound: CC(C)C[C@@H](C=O)NC(=O)[C@H](CC(C)C)NC(=O)[C@H](CC(C)C)NC(=O)OCc1ccccc1
Method in brief: as §1

[18] = compound: CC(C)N(C[C@H]1O[C@@H](n2cnc3c(N)ncnc32)[C@H](O)[C@@H]1O)[C@H]1C[C@@H](CCc2nc3cc(C(C)(C)C)ccc3[nH]2)C1 [pinometostat]
Method in brief: as §1

[19] = compound: CC1=C(C2=C(C=C1)C(=O)C3=CC=CC=C3N2CCCN)C
Method in brief: as §1

[20] = compound: CC1=C(C(CC(=O)N1)C2=CC=C(C=C2)C(F)(F)F)C(=O)NC3=C(C=C4C(=C3)C=NN4)F
Method in brief: as §1

IPO7 (UniProt O95373)
log2 fold change [1]: inactive: -0.015 | log2 fold change [2]: inactive: 0.078 | log2 fold change [3]: inactive: 0.034 | log2 fold change [4]: inactive: -0.003 | log2 fold change [5]: inactive: 0.01 | log2 fold change [6]: inactive: 0.056 | log2 fold change [7]: inactive: 0.026 | log2 fold change [8]: inactive: -0.019 | log2 fold change [9]: inactive: -0.004 | log2 fold change [10]: inactive: -0.05 | log2 fold change [11]: inactive: 0 | log2 fold change [12]: inactive: -0.063 | log2 fold change [13]: inactive: -0.021 | log2 fold change [14]: inactive: 0.032 | log2 fold change [15]: inactive: -0.153 | log2 fold change [16]: active: -0.309 | log2 fold change [17]: inactive: -0.069 | log2 fold change [18]: inactive: 0.012 | log2 fold change [19]: active: -0.221

ITIH1 (UniProt P19827)
log2 fold change [1]: inactive: -0.047 | log2 fold change [2]: inactive: -0.266 | log2 fold change [4]: inactive: 0.049 | log2 fold change [5]: inactive: 0.355 | log2 fold change [8]: inactive: -0.418 | log2 fold change [13]: inactive: 0.134 | log2 fold change [16]: inactive: -0.011

IGF2R (UniProt P11717)
log2 fold change [1]: inactive: -0.052 | log2 fold change [2]: inactive: 0 | log2 fold change [3]: inactive: 0 | log2 fold change [4]: inactive: 0.025 | log2 fold change [5]: inactive: -0.012 | log2 fold change [6]: inactive: 0.003 | log2 fold change [7]: inactive: 0.009 | log2 fold change [8]: inactive: -0.021 | log2 fold change [9]: inactive: 0.002 | log2 fold change [10]: inactive: 0.012 | log2 fold change [11]: inactive: -0.002 | log2 fold change [12]: inactive: 0.013 | log2 fold change [13]: inactive: 0.016 | log2 fold change [14]: inactive: -0.038 | log2 fold change [15]: inactive: -0.007 | log2 fold change [16]: active: -0.218 | log2 fold change [17]: inactive: -0.009 | log2 fold change [18]: inactive: 0.005 | log2 fold change [19]: inactive: -0.071

ING4 (UniProt Q9UNL4)
log2 fold change [1]: inactive: -0.133 | log2 fold change [2]: inactive: 0.08 | log2 fold change [3]: inactive: -0.204 | log2 fold change [4]: inactive: 0.307 | log2 fold change [5]: inactive: 0.058 | log2 fold change [8]: inactive: -0.033 | log2 fold change [9]: inactive: -0.237 | log2 fold change [10]: inactive: 0.272 | log2 fold change [13]: inactive: 0.173 | log2 fold change [15]: inactive: 0.195 | log2 fold change [16]: inactive: -0.034 | log2 fold change [19]: inactive: 0.088

IKZF4 (UniProt Q9H2S9)
log2 fold change [1]: inactive: 0.075 | log2 fold change [2]: inactive: 0.083 | log2 fold change [3]: inactive: 0.102 | log2 fold change [4]: inactive: 0.013 | log2 fold change [5]: inactive: 0.022 | log2 fold change [6]: inactive: 0.337 | log2 fold change [7]: inactive: -0.215 | log2 fold change [8]: inactive: -0.105 | log2 fold change [12]: inactive: -0.007 | log2 fold change [13]: inactive: -0.166 | log2 fold change [14]: inactive: -0.178 | log2 fold change [15]: inactive: -0.311 | log2 fold change [16]: inactive: -0.395 | log2 fold change [17]: inactive: 0.195 | log2 fold change [20]: inactive: -0.002

IRAK1 (UniProt P51617)
log2 fold change [1]: inactive: 0.162 | log2 fold change [3]: inactive: -0.224 | log2 fold change [4]: inactive: -0.177 | log2 fold change [6]: inactive: 0.037 | log2 fold change [7]: inactive: -0.07 | log2 fold change [11]: inactive: 0.078 | log2 fold change [12]: inactive: -0.048 | log2 fold change [14]: inactive: 0.194 | log2 fold change [15]: inactive: -0.33 | log2 fold change [16]: inactive: -0.319 | log2 fold change [17]: inactive: -0.007 | log2 fold change [18]: inactive: 0.141 | log2 fold change [20]: inactive: 0.009

IGHA1 (UniProt P01876)
log2 fold change [1]: inactive: 0.536 | log2 fold change [2]: inactive: 0.013 | log2 fold change [3]: inactive: 0 | log2 fold change [4]: inactive: 0.321 | log2 fold change [5]: inactive: -0.1 | log2 fold change [6]: inactive: -0.388 | log2 fold change [7]: inactive: -0.547 | log2 fold change [8]: inactive: -0.095 | log2 fold change [9]: inactive: 0.015 | log2 fold change [10]: inactive: -0.143 | log2 fold change [12]: inactive: -0.036 | log2 fold change [13]: inactive: -0.192 | log2 fold change [14]: inactive: -0.026 | log2 fold change [15]: inactive: 0.151 | log2 fold change [16]: inactive: -0.74 | log2 fold change [17]: inactive: -0.079 | log2 fold change [20]: inactive: -0.411 | log2 fold change [19]: inactive: 0.189

IGKC (UniProt P01834)
log2 fold change [1]: inactive: 0.432 | log2 fold change [2]: inactive: -0.383 | log2 fold change [4]: inactive: -0.295 | log2 fold change [5]: inactive: 0.249 | log2 fold change [6]: inactive: -0.298 | log2 fold change [7]: inactive: -0.646 | log2 fold change [8]: inactive: -0.613 | log2 fold change [9]: inactive: -0.427 | log2 fold change [10]: inactive: -0.094 | log2 fold change [11]: inactive: -0.636 | log2 fold change [12]: inactive: -0.094 | log2 fold change [13]: inactive: -0.255 | log2 fold change [14]: inactive: 0 | log2 fold change [16]: inactive: -0.137 | log2 fold change [17]: inactive: -0.32 | log2 fold change [18]: inactive: 0.099 | log2 fold change [20]: inactive: -0.164 | log2 fold change [19]: inactive: 0.116

IKZF1 isoform 2 (UniProt Q13422)
log2 fold change [1]: inactive: 0.017 | log2 fold change [4]: inactive: -0.006 | log2 fold change [6]: inactive: 0.046 | log2 fold change [7]: inactive: 0.047 | log2 fold change [9]: active: -0.38 | log2 fold change [10]: inactive: -0.016 | log2 fold change [12]: inactive: 0.252 | log2 fold change [14]: inactive: 0.152 | log2 fold change [16]: inactive: 0.031 | log2 fold change [17]: inactive: 0.159 | log2 fold change [19]: active: 0.418

INTS2 (UniProt Q9H0H0)
log2 fold change [1]: inactive: -0.001 | log2 fold change [2]: inactive: -0.384 | log2 fold change [3]: inactive: 0.179 | log2 fold change [4]: inactive: -0.011 | log2 fold change [5]: inactive: 0.407 | log2 fold change [7]: inactive: -0.11 | log2 fold change [8]: inactive: 0.028 | log2 fold change [9]: inactive: -0.014 | log2 fold change [10]: inactive: -0.043 | log2 fold change [11]: inactive: 0.024 | log2 fold change [13]: inactive: -0.125 | log2 fold change [14]: inactive: 0.051 | log2 fold change [15]: inactive: -0.153 | log2 fold change [16]: inactive: -0.051 | log2 fold change [17]: inactive: 0.054 | log2 fold change [18]: inactive: 0.045 | log2 fold change [19]: inactive: -0.076

INTS1 (UniProt Q8N201)
log2 fold change [1]: inactive: 0.066 | log2 fold change [3]: inactive: -0.11 | log2 fold change [4]: inactive: 0.065 | log2 fold change [7]: inactive: 0.118 | log2 fold change [9]: inactive: -0.041 | log2 fold change [10]: inactive: 0.015 | log2 fold change [14]: inactive: -0.185 | log2 fold change [15]: inactive: 0.095 | log2 fold change [16]: inactive: -0.058 | log2 fold change [17]: inactive: -0.113 | log2 fold change [20]: inactive: 0.007 | log2 fold change [19]: inactive: 0.072
